Test results reported in PubChem BioAssay AID248 (DTP/NCI, 2004).
The list is a part of this screen's results and no random one: it is rich in T/C values a quarter to a half above the control, in often repeated tests (any T/C) and in doses without a T/C. Other doses and runs of a compound stand elsewhere. T/C is the treated group as % of the vehicle group. Some doses have a count of surviving animals in place of a T/C: the source holds a T/C of zero for them, seemingly a mark for toxic or unscored doses. Some doses without a T/C left all or most animals alive at the check, yet need not have been tolerated: the source hardly ever lists a survival T/C far under the control, and the zero likely stands for such cases as well. Survivors were counted at the toxicity check, usually on the fifth day, unless a day is given; later deaths do not show. Schedules are NCI's codes, taken here to give the interval after Q, in days (D) or hours (H), and the number of doses after X. Some schedule codes hold Z or #, which are not explained here. Some entries were tested several times; their values stand side by side, smallest first. For survival time, the PubChem record calls one and a half times the control and up active, and a quarter to a half above the control has no call in these data; cut-offs in other NCI protocols can differ. Some T/C values carry the count of animals alive at the toxicity check (mostly the fifth day); where none is given, no animal had died by that day.

Test system: L1210 leukemia ip in BDF1 mice, survival T/C
Experiment: NCI In Vivo Anticancer Drug Screen. Data for tumor model L1210 Leukemia (intraperitoneal) in B6D2F1 (BDF1) mice
Settings: T/C endpoint: mean survival time, higher T/C = longer survival
[1] = dose: 4.0 mg/kg/injection, schedule: Q01DX Z (oral), vehicle: acid diluted with saline
[2] = dose: 8.0 mg/kg/injection, schedule: Q01DX Z (oral), vehicle: acid diluted with saline

NC(Cc1c[nH]c2ccc(N(CCCl)CCCl)cc12)C(=O)O (configuration not stated)
T/C (dose: 0.01 mg/kg/injection, schedule: Q07DX Z (ip), vehicle: acid diluted with saline): 142 % of control
T/C (dose: 0.03 mg/kg/injection, schedule: Q#A X Z (ip), vehicle: acid diluted with saline): 139 % of control
T/C (dose: 0.04 mg/kg/injection, schedule: Q01DX Z (ip), vehicle: saline): 133 % of control
T/C (dose: 0.06 mg/kg/injection, schedule: Q01DX Z (ip), vehicle: acid diluted with saline): 129 % of control
T/C (dose: 0.07 mg/kg/injection, schedule: Q01DX Z (ip), vehicle: saline): 128 % of control
T/C (dose: 0.09 mg/kg/injection, schedule: Q01DX009 (ip), vehicle: saline): 129 and 138 % of control
T/C (dose: 0.18 mg/kg/injection, schedule: Q01DX009 (ip), vehicle: saline): 132 % of control
T/C (dose: 0.18 mg/kg/injection, schedule: Q01DX Z (ip), vehicle: acid diluted with saline): 140 % of control
T/C (dose: 0.25 mg/kg/injection, schedule: Q01DX (oral), vehicle: acid diluted with saline): 130 % of control
T/C (dose: 0.25 mg/kg/injection, schedule: Q01DX Z (oral), vehicle: acid diluted with saline): 100, 102, 104, 110 % of control
T/C (dose: 0.25 mg/kg/injection, schedule: Q#A X Z (oral), vehicle: acid diluted with saline): 143 % of control
T/C (dose: 0.37 mg/kg/injection, schedule: Q01DX009 (ip), vehicle: saline): 135 and 136 % of control
T/C (dose: 0.5 mg/kg/injection, schedule: Q01DX (oral), vehicle: acid diluted with saline): 144 % of control
T/C (dose: 0.5 mg/kg/injection, schedule: Q01DX Z (oral), vehicle: acid diluted with saline): 104, 110, 115, 117, 130 % of control
T/C (dose: 0.5 mg/kg/injection, schedule: Q07DX003 (ip), vehicle: acid diluted with saline): 148 % of control
T/C (dose: 0.5 mg/kg/injection, schedule: Q07DX Z (ip), vehicle: acid diluted with saline): 138 % of control
T/C (dose: 0.54 mg/kg/injection, schedule: Q01DX Z (sc), vehicle: acid diluted with saline): 142 % of control
T/C (dose: 0.75 mg/kg/injection, schedule: Q01DX009 (ip), vehicle: saline): 138 % of control
T/C (dose: 0.75 mg/kg/injection, schedule: Q03DX (oral), vehicle: acid diluted with saline): 125 % of control
survivor count (dose: 0.8 mg/kg/injection, schedule: Q#A X Z (ip), vehicle: acid diluted with saline): 0 of 6
survivor count (dose: 0.87 mg/kg/injection, schedule: Q01DX Z (ip), vehicle: saline): 6 of 6
T/C (dose: 0.93 mg/kg/injection, schedule: Q01DX001 (ip), vehicle: carboxymethylcellulose (CMC)): 128 % of control
T/C (dose: 1.0 mg/kg/injection, schedule: Q01DX Z (oral), vehicle: acid diluted with saline): 120, 125, 135, 140, 144 % of control
survivor count (dose: 1.0 mg/kg/injection, schedule: Q#A X Z (oral), vehicle: acid diluted with saline): 5 of 6
survivor count (dose: 1.3 mg/kg/injection, schedule: Q01DX Z (ip), vehicle: saline): 6 of 6
survivor count (dose: 1.6 mg/kg/injection, schedule: Q01DX Z (ip), vehicle: acid diluted with saline): 4 of 6
T/C (dose: 1.87 mg/kg/injection, schedule: Q01DX001 (ip), vehicle: carboxymethylcellulose (CMC)): 146 % of control
survivor count (dose: 1.9 mg/kg/injection, schedule: Q01DX Z (ip), vehicle: saline): 0 of 6
T/C (dose: 2.0 mg/kg/injection, schedule: Q01DX Z (oral), vehicle: acid diluted with saline): 114, 122, 133, 135, 143, 148, 151 % of control
T/C (dose: 2.0 mg/kg/injection, schedule: Q03DX Z (oral), vehicle: acid diluted with saline): 126 % of control
survivor count (dose: 2.0 mg/kg/injection, schedule: Q#A X Z (oral), vehicle: acid diluted with saline): 3 of 6
T/C (dose: 2.4 mg/kg/injection, schedule: Q01DX Z (oral), vehicle: saline): 135 % of control
survivor count (dose: 2.9 mg/kg/injection, schedule: Q01DX Z (ip), vehicle: saline): 0 of 6
T/C (dose: 3.0 mg/kg/injection, schedule: Q03DX (oral), vehicle: acid diluted with saline): 143 % of control
T/C (dose: 3.5 mg/kg/injection, schedule: Q07DX Z (oral), vehicle: acid diluted with saline): 125 and 138 % of control
T/C [1]: 120, 130, 157, 162 % of control
survivor count [1]: 6 of 6
T/C (dose: 4.0 mg/kg/injection, schedule: Q03DX Z (oral), vehicle: acid diluted with saline): 133 % of control [5 of 6 alive]
survivor count (dose: 4.0 mg/kg/injection, schedule: Q#A X Z (oral), vehicle: acid diluted with saline): 2 of 6
survivor count (dose: 4.8 mg/kg/injection, schedule: Q01DX Z (sc), vehicle: acid diluted with saline): 2 of 6
T/C (dose: 6.0 mg/kg/injection, schedule: Q03DX (oral), vehicle: acid diluted with saline): 127 % of control
T/C (dose: 7.0 mg/kg/injection, schedule: Q07DX Z (oral), vehicle: acid diluted with saline): 143 % of control
T/C [2]: 117 and 158 % of control
survivor count [2]: 2 of 6 and 5 of 6
T/C (dose: 14.0 mg/kg/injection, schedule: Q07DX (oral), vehicle: acid diluted with saline): 127 % of control
survivor count (dose: 15.0 mg/kg/injection, schedule: Q01DX Z (sc), vehicle: acid diluted with saline): 1 of 6
survivor count (dose: 16.0 mg/kg/injection, schedule: Q01DX Z (oral), vehicle: acid diluted with saline): 3 of 6 and 6 of 6
survivor count (dose: 20.0 mg/kg/injection, schedule: Q01DX001 (ip), vehicle: saline): 5 of 6
survivor count (dose: 24.0 mg/kg/injection, schedule: Q03DX (oral), vehicle: acid diluted with saline): 6 of 6
survivor count (dose: 28.0 mg/kg/injection, schedule: Q07DX Z (oral), vehicle: acid diluted with saline): 6 of 6
survivor count (dose: 40.0 mg/kg/injection, schedule: Q01DX001 (ip), vehicle: saline): 3 of 6
survivor count (dose: 45.0 mg/kg/injection, schedule: Q01DX Z (sc), vehicle: acid diluted with saline): 0 of 6
survivor count (dose: 80.0 mg/kg/injection, schedule: Q01DX001 (ip), vehicle: saline): 0 of 6
survivor count (dose: 112.0 mg/kg/injection, schedule: Q01DX001 (oral), vehicle: acid diluted with saline): 1 of 6
survivor count (dose: 160.0 mg/kg/injection, schedule: Q01DX001 (oral), vehicle: saline): 1 of 6
survivor count (dose: 168.0 mg/kg/injection, schedule: Q01DX001 (oral), vehicle: acid diluted with saline): 2 of 6
survivor count (dose: 204.0 mg/kg/injection, schedule: Q01DX001 (oral), vehicle: acid diluted with saline): 4 of 6
survivor count (dose: 320.0 mg/kg/injection, schedule: Q01DX001 (oral), vehicle: saline): 2 of 6
survivor count (dose: 363.0 mg/kg/injection, schedule: Q01DX 1 (oral), vehicle: acid diluted with saline): 6 of 6
survivor count (dose: 484.0 mg/kg/injection, schedule: Q01DX 1 (oral), vehicle: acid diluted with saline): 6 of 6
T/C (dose: 75.0 micrograms/kg/injection, schedule: Q01DX Z (ip), vehicle: saline): 127 % of control
T/C (dose: 90.0 micrograms/kg/injection, schedule: Q01DX009 (ip), vehicle: saline): 125 % of control
T/C (dose: 113.0 micrograms/kg/injection, schedule: Q01DX Z (ip), vehicle: saline): 134 % of control
T/C (dose: 170.0 micrograms/kg/injection, schedule: Q01DX Z (ip), vehicle: saline): 132 % of control
T/C (dose: 180.0 micrograms/kg/injection, schedule: Q01DX009 (ip), vehicle: saline): 131 % of control
T/C (dose: 260.0 micrograms/kg/injection, schedule: Q01DX Z (ip), vehicle: saline): 138 % of control
T/C (dose: 375.0 micrograms/kg/injection, schedule: Q01DX009 (ip), vehicle: saline): 143 % of control
